Measurements taken from PubChem BioAssay AID504594 (Broad Institute, 2011).
Screen size: about 2,000 compounds; fewer than 10 were called active.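 How the source made its calls: active means growth inhibition of at least 75% in every replicate, which also brings the mean inhibition to 75% or more; inconclusive means mean inhibition 75% or more but some replicate under 75%; inactive means the rest.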 This is one part of the list.

Assay: growth inhibition of PfHsp90-dependent yeast, primary screen, antimalarial PfHsp90 inhibitor project, S. cerevisiae, BacTiter-Glo luminescence (AID 504594);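 further: 0% = DMSO neutral control wells and 100% = 20 µM radicicol control wells; higher value means stronger growth inhibition because the sign is flipped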
Details: S. cerevisiae expressing PfHsp90, BacTiter-Glo growth, 48 h; at 9.4 µM; active compounds read high

Growth inhibition, inactive:
O=C(NC(Nc1ccccn1)C(Cl)(Cl)Cl)c1ccccc1 (stereo not drawn) -5.72%, COc1ccc(NC(=S)NCCc2c[nH]c3ccccc23)cc1 -20.9%, O=C(NCCNc1ccc(Cl)cc1[N+](=O)[O-])c1cccnc1 1.09%, CC(C)Oc1ccc(C2CC(=O)N(c3ccc(C(=O)O)cc3)C2=O)cc1 (stereo not drawn) -11.1%, c1ccc(-c2ccccn2)nc1 -14.8%, COCCOC(=O)C1=C(N)OC2=C(C(=O)CCC2)C1c1cccnc1 (stereo not drawn) -3.23%, CCSc1nc(O)c(C2OC(=O)c3c2ccc(OC)c3OC)c(=O)n1CC (stereo not drawn) 9.9%, CCN(CC)C(=S)SSC(=S)N(CC)CC 68%, COc1cc2cc(C(=O)O)n(C)c2c(OC)c1OC -14.5%, CCOC(=O)C(NC(C)=O)C(O)c1ccc([N+](=O)[O-])cc1 (stereo not drawn) -10.7%, Nc1ccc2cn[nH]c2c1 3.87%, O=C1OC(Nc2ccc3c(c2)OCO3)c2ccccc21 (stereo not drawn) -1.88%, CCNC(=O)c1c(N)sc2c1CCCCC2 -0.729%, COc1ccc(C(C)N2CC34C=CC(O3)C(C(=O)OCC(C)C)C4C2=O)cc1 (stereo not drawn) -5.07%, Nc1c2c(nc3ccccc13)CCCC2 -5.11%, COc1cc2c3c(c1)C1(C(=O)N3C(C)(C)C=C2C)C(C#N)=C(N)Oc2cc(C)oc(=O)c21 (stereo not drawn) 5.07%, COc1cc2c(cc1OC)C(C)=NC1(CCCCC1)C2 -11.3%, CN(C)CCCN1c2ccccc2Sc2ccccc21 -10.8%, Cn1c(SCC(=O)c2ccccc2)nnc1-c1ccncc1 0.861%, COc1ccc(N2C(=O)[C@@H]3[C@H](C2=O)[C@H]2c4ccccc4C=CN2[C@@H]3C(C)=O)cc1 2.31%, Cc1cc(C(C)(C)C)c(O)c(C)c1CC1=NCCN1 0.506%, Nc1c(C(=O)c2ccccc2)oc2ccccc12 4.23%, CC(=O)N(CCC(Cc1ccccc1)c1ccco1)Cc1ccco1 (stereo not drawn) -1.71%, C[C@]12CC[C@@H]3c4ccc(O)cc4CC[C@H]3[C@@H]1CC[C@@H]2OC(=O)CCC(=O)O -19.8%, O=C(NCc1ccc(N2CCCC2=O)cc1)c1cccc(Cl)c1 8.67%, Cc1ccc2c(c1)c1c3n2CCCNC3CCC1 (stereo not drawn) 4.09%, COc1ccc(C2N3CC4(C)CN2CC(C)(C3)C4)cc1OC (stereo not drawn) 12.1%, COc1ccc2c(c1OC)C(=O)OC2C1c2c(cc3c(c2OC)OCO3)CCN1C (stereo not drawn) 0.728%, COc1ccc(CCNC(=O)c2ccc(Cl)cc2)cc1OC 13.9%, CCCN1C[C@H](CSC)C[C@@H]2c3cccc4[nH]cc(c34)C[C@H]21 7.89%, CCC(=O)Oc1ccc(/C(CC)=C(\CC)c2ccc(OC(=O)CC)cc2)cc1 -13.5%, CCN1C(=O)C(CC(=O)Nc2ccc(F)cc2)N(Cc2ccco2)C1=S (stereo not drawn) -5.62%, COc1ccc2[nH]cc(C(=O)CCl)c2c1 -7.65%, Nc1cccc(C(=O)O)c1 -21.3%, COc1cc(CNCc2ccc(OC)c(OC)c2OC)cc(OC)c1 5.29%, N/C(Cc1ccc(Cl)cc1Cl)=N\OC(=O)c1ccc(Br)o1 30.5%, CN(Cc1c(C(=O)N(C)Cc2ccccc2)nc2ccccn12)CC1Cc2ccccc2O1 (stereo not drawn) 11.4%, OCCC1CN(Cc2nc(-c3ccccc3)cs2)CCN1Cc1ccc(F)cc1 (stereo not drawn) -1.52%, c1ccc2c(c1)CCOC2CNCCCN1CCCCC1 (stereo not drawn) -0.298%, CCN1C(=O)C(CC(=O)Nc2ccc(OC)cc2)N(CCc2ccc(F)cc2)C1=S (stereo not drawn) -2%, CC1(C)Oc2ccc(C#N)cc2[C@@H](N2CCCC2=O)[C@@H]1O 7.78%, CC[N+](C)(C)Cc1ccccc1Br -0.648%, O=C(NCc1ccccc1Cl)NC(=O)c1ccccc1 -17.2%, Cc1oncc1C(=O)Nc1ccc(C(F)(F)F)cc1 4.91%, COc1ccc(C(Cl)=C(c2ccc(OC)cc2)c2ccc(OC)cc2)cc1 3.91%, O=C(O)c1cccnc1Nc1cccc(C(F)(F)F)c1 10.6%, CC(CCc1ccccc1)NCC(O)c1ccc(O)c(C(N)=O)c1 (stereo not drawn) -2.57%, CCc1cc2c(=O)c(-c3ccc4c(c3)OCCO4)coc2c(CN2CCCCC2C)c1O (stereo not drawn) -11.5%, Cc1ccc(Cl)c(OCCCN(C)Cc2ccccc2)c1 3.97%, C[C@]12CCC(=O)C=C1[C@H](O)C[C@@H]1[C@@H]2[C@@H](O)C[C@@]2(C)[C@H]1CC[C@]2(O)C(=O)CO -5.05%, Cc1[nH]nc(-c2ccc(O)cc2O)c1Oc1ccccc1 1.63%, Fc1ccc(C(c2ccc(F)cc2)N2CCN(C/C=C/c3ccccc3)CC2)cc1 -7.94%, CCOC(=O)C(=O)Nc1ccc(Oc2ccccc2)cc1 6.51%, COc1ccccc1C(=O)Nc1cc2cc(Br)ccc2oc1=O -5.87%, CCCCC(=O)O[C@H]1CC[C@H]2[C@@H]3CCc4cc(O)ccc4[C@H]3CC[C@]12C -6.39%, CC(=O)C1=C(O)C(=O)N(CC(=O)O)C1c1ccccc1Cl (stereo not drawn) 6.61%, N=C(N)c1ccc(OCCCCCOc2ccc(C(=N)N)cc2)cc1 2.21%, CCN(CC)CCN1C(=O)C(=O)/C(=C(/O)c2c(C)[nH]c(C(=O)OC)c2C)C1c1cccnc1 (stereo not drawn) -4.71%, CC/C(=C1/C(=O)CC(C)(C)C(C(=O)OC)C1=O)N1CCCC1 (stereo not drawn) -4.07%, CC(=O)c1c(N)nc2n(c1=O)CCCCC2 2.63%, O=C(O)[C@@H](O)c1ccccc1 -2.46%, C/C(CCc1oc2ccc(Cl)cc2c1-c1ccc(C)o1)=N\O -3.04%, Nc1nc(Cl)nc2c1ncn2[C@H]1C[C@H](O)[C@@H](CO)O1 -12.6%
